Results on 31 compounds are retold here after the supplement of paper PMC4604168 (melanoma cell lines).

The list shows a part of the results. Repeats are few or missing, and single values can be far off.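 Imaging used 1,536-well plates; nuclei positive for cleaved PARP by antibody were divided by total DNA-stained nuclei to yield the apoptosis fraction. Doses for screening kept most cells viable, and cell lines differ markedly in resting and induced cleaved-PARP levels.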

The experiment relates to MZ2-MEL. In words: cleaved PARP positive nuclei fraction relative to DMSO control; melanoma cells; higher = more apoptosis. Conditions: library dose: low library concentration; 72 h.
Regarding `Nc1ncn([C@H]2C[C@H](O)[C@@H](CO)O2)c(=O)n1` [decitabine] + COc1ccc(-c2ccc3c(N4CCOCC4)nc(N4C[C@@H](C)O[C@@H](C)C4)nc3n2)cc1CO [KU0063794] (first compound 0.1 µM, partner dose 0.02 µM), the “cleaved PARP positive nuclei fraction” value worked out at 124%.
For the compound `CS(=O)(=O)CCNCc1ccc(-c2ccc3ncnc(Nc4ccc(OCc5cccc(F)c5)c(Cl)c4)c3c2)o1` [lapatinib] + O=S(=O)(c1ccccc1)N(CC(F)(F)F)c1ccc(C(O)(C(F)(F)F)C(F)(F)F)cc1 [T0901317] (first compound 0.8 µM, partner dose 1.4 µM), the “cleaved PARP positive nuclei fraction” value was 127%.
The result for `Nc1ccn([C@@H]2O[C@H](CO)[C@@H](O)C2(F)F)c(=O)n1` [gemcitabine] + CC1(C)NC(=O)N(c2ccc([N+](=O)[O-])c(C(F)(F)F)c2)C1=O [nilutamide] (first compound 0.0004 µM, partner dose 1 µM) reads 87.5%; that for `CCCS(=O)(=O)Nc1ccc(F)c(C(=O)c2c[nH]c3ncc(Cl)cc23)c1F` + O=C1NC(=O)/C(=C/c2ccc(-c3ccc(F)cc3O)o2)S1 [AS252424] (first compound 0.08 µM, partner dose 1 µM), 126%.
Consider `CNC(=O)c1cc(Oc2ccc(NC(=O)Nc3ccc(Cl)c(C(F)(F)F)c3)cc2)ccn1` [sorafenib] + C[C@@H]1CCN(C(=O)CC#N)C[C@@H]1N(C)c1ncnc2[nH]ccc12 [CP690550] (first compound 0.4 µM, partner dose 1 µM), for which the “cleaved PARP positive nuclei fraction” value stood at 67.6%.
The result for `Cc1cc(Nc2cc(N3CCN(C)CC3)nc(/C=C/c3ccccc3)n2)n[nH]1` + CN(C)S(=O)(=O)c1ccc2c(c1)/C(=C/c1cc3c([nH]1)CCCC3)C(=O)N2 [SU6656] (first compound 0.04 µM, partner dose 0.4 µM) reads 129%.
Regarding `Nc1ncn([C@H]2C[C@H](O)[C@@H](CO)O2)c(=O)n1` [decitabine] + CCCCCCCCCCCC1=C(O)C(=O)C=C(O)C1=O [Embelin] (first compound 0.1 µM, partner dose 1.2 µM), the “cleaved PARP positive nuclei fraction” value is 83.2%.
As to `Nc1nc(F)nc2c1ncn2[C@@H]1O[C@H](CO)[C@@H](O)[C@@H]1O` [fludarabine] + CCCCCCCCCCCC1=C(O)C(=O)C=C(O)C1=O [Embelin] (first compound 0.2 µM, partner dose 1.2 µM), the “cleaved PARP positive nuclei fraction” value was 56.1%.
The result for `O=C(O)c1ccc2c(c1)nc(Nc1cccc(Cl)c1)c1ccncc12` + COc1ccc2c(c1)CCC1C2CCC2(C)C(NCCCCCCN3C(=O)C=CC3=O)CCC12 [U73122] (first compound 0.4 µM, partner dose 0.4 µM) reads 110%; that for `Nc1ccn([C@@H]2O[C@H](CO)[C@@H](O)C2(F)F)c(=O)n1` [gemcitabine] + CO[C@@H]1[C@H](N(C)C(=O)c2ccccc2)C[C@H]2O[C@]1(C)n1c3ccccc3c3c4c(c5c6ccccc6n2c5c31)C(=O)NC4 [Midostaurin] (first compound 0.0004 µM, partner dose 0.08 µM), 152%.
The result for `CN1CCN(c2ccc3nc(-c4c(N)c5c(F)cccc5[nH]c4=O)[nH]c3c2)CC1` [Dovitinib] + O=C(O)C(=O)Nc1sc2c(c1C(=O)O)CCNC2 [TCS401] (first compound 0.1 µM, partner dose 1.66667 µM) reads 288%; that for `Nc1ncn([C@H]2C[C@H](O)[C@@H](CO)O2)c(=O)n1` [decitabine] + COC(=O)c1sccc1S(=O)(=O)Nc1ccc(Nc2ccccc2)cc1OC [GSK0660] (first compound 0.1 µM, partner dose 1 µM), 86.9%; that for `Cc1cc(Nc2cc(N3CCN(C)CC3)nc(/C=C/c3ccccc3)n2)n[nH]1` + Cc1cc(N2CCOCC2)cc2[nH]c(-c3c(NC[C@@H](O)c4cccc(Cl)c4)cc[nH]c3=O)nc12 [BMS536924] (first compound 0.04 µM, partner dose 0.2 µM), 115%.
The result for `Cn1c(=O)n(-c2ccc(C(C)(C)C#N)cc2)c2c3cc(-c4cnc5ccccc5c4)ccc3ncc21` + NC(=O)Nc1cc(-c2cccc(F)c2)sc1C(=O)N[C@H]1CCCNC1 [AZD7762] (first compound 0.004 µM, partner dose 0.02 µM) reads 78.6%; that for `C=C(c1ccc(C(=O)O)cc1)c1cc2c(cc1C)C(C)(C)CCC2(C)C` [Bexarotene] + O=C(Nc1ccccc1)c1cc([N+](=O)[O-])ccc1Cl [GW9662] (first compound 2 µM, partner dose 2 µM), 3250%; that for `CNC(=O)c1cc(Oc2ccc(NC(=O)Nc3ccc(Cl)c(C(F)(F)F)c3)cc2)ccn1` [sorafenib] + COC(=O)c1sccc1S(=O)(=O)Nc1ccc(Nc2ccccc2)cc1OC [GSK0660] (first compound 0.4 µM, partner dose 1 µM), 82.3%.
For `CNC(=O)c1cc(Oc2ccc(NC(=O)Nc3ccc(Cl)c(C(F)(F)F)c3)cc2)ccn1` [sorafenib] + CCCCCCCCCCCC1=C(O)C(=O)C=C(O)C1=O [Embelin] (first compound 0.4 µM, partner dose 1.2 µM), the “cleaved PARP positive nuclei fraction” value worked out at 148%.
The result for `CS(=O)(=O)CCNCc1ccc(-c2ccc3ncnc(Nc4ccc(OCc5cccc(F)c5)c(Cl)c4)c3c2)o1` [lapatinib] + CN(C)S(=O)(=O)c1ccc2c(c1)/C(=C/c1cc3c([nH]1)CCCC3)C(=O)N2 [SU6656] (first compound 0.8 µM, partner dose 0.4 µM) reads 188%; that for `C[C@@H](Oc1cc(-c2cnn(C3CCNCC3)c2)cnc1N)c1c(Cl)ccc(F)c1Cl` [Crizotinib] + CCCCCCCCCCCC1=C(O)C(=O)C=C(O)C1=O [Embelin] (first compound 0.2 µM, partner dose 1.2 µM), 40%.
The result for `Nc1nc(F)nc2c1ncn2[C@@H]1O[C@H](CO)[C@@H](O)[C@@H]1O` [fludarabine] + Cc1cc(N2CCOCC2)cc2[nH]c(-c3c(NC[C@@H](O)c4cccc(Cl)c4)cc[nH]c3=O)nc12 [BMS536924] (first compound 0.2 µM, partner dose 0.2 µM) reads 107%.
The result for `Cc1cc(Nc2cc(N3CCN(C)CC3)nc(/C=C/c3ccccc3)n2)n[nH]1` + COc1ccc(COc2ccc(Cc3cnc(N)nc3N)cc2OC)cc1 [GW2580] (first compound 0.04 µM, partner dose 1 µM) reads 68.7%.
For `CNC(=O)c1cc(Oc2ccc(NC(=O)Nc3ccc(Cl)c(C(F)(F)F)c3)cc2)ccn1` [sorafenib] + NCC(=O)Nc1ccc(-n2nc(C(F)(F)F)cc2-c2ccc3c(ccc4ccccc43)c2)cc1 [OSU03012] (first compound 0.4 µM, partner dose 1 µM), the “cleaved PARP positive nuclei fraction” value turned out to be 157%.
The result for `Cc1cc(Nc2cc(N3CCN(C)CC3)nc(/C=C/c3ccccc3)n2)n[nH]1` + OCCn1cc(-c2cnc3nnn(Cc4ccc5ncccc5c4)c3n2)cn1 [PF04217903] (first compound 0.04 µM, partner dose 1 µM) reads 120%.
The result for `Nc1nc(F)nc2c1ncn2[C@@H]1O[C@H](CO)[C@@H](O)[C@@H]1O` [fludarabine] + CCc1ccc(CCOc2ccc(CC3SC(=O)NC3=O)cc2)nc1 [pioglitazone] (first compound 0.2 µM, partner dose 2 µM) reads 20.5%.
`CS(=O)(=O)CCNCc1ccc(-c2ccc3ncnc(Nc4ccc(OCc5cccc(F)c5)c(Cl)c4)c3c2)o1` [lapatinib] + OCCn1cc(-c2cnc3nnn(Cc4ccc5ncccc5c4)c3n2)cn1 [PF04217903] (first compound 0.8 µM, partner dose 1 µM): the “cleaved PARP positive nuclei fraction” value was 46.9%.
The result for `CNC(=O)c1cc(Oc2ccc(NC(=O)Nc3ccc(Cl)c(C(F)(F)F)c3)cc2)ccn1` [sorafenib] + Cc1cc([N+](=O)[O-])ccc1NS(=O)(=O)c1cc(Cl)ccc1Cl [FH535] (first compound 0.4 µM, partner dose 1 µM) reads 81.8%; that for `CN1CCN(c2ccc3nc(-c4c(N)c5c(F)cccc5[nH]c4=O)[nH]c3c2)CC1` [Dovitinib] + COc1ccc2c(c1)CCC1C2CCC2(C)C(NCCCCCCN3C(=O)C=CC3=O)CCC12 [U73122] (first compound 0.1 µM, partner dose 0.4 µM), 233%; that for `O=C(O)[C@@H]1[O][Sb](=[O])([O][Sb]2(=[O])[O][C@H]([C@H](O)CO)[C@H](O)[C@H](C(=O)O)[O]2)[O][C@H]([C@H](O)CO)[C@@H]1O` (stereo partly specified) [stibogluconate] + COc1cc(N2CCC(N3CCN(C)CC3)CC2)ccc1Nc1ncc(Cl)c(Nc2ccccc2S(=O)(=O)C(C)C)n1 [NVP-TAE684] (first compound 2 µM, partner dose 0.08 µM), 91.5%.
For `CCCS(=O)(=O)Nc1ccc(F)c(C(=O)c2c[nH]c3ncc(Cl)cc23)c1F` + N#Cc1c(O)c2c(-c3ccc(-c4ccccc4O)cc3)csc2[nH]c1=O [A769662] (first compound 0.08 µM, partner dose 2 µM), the “cleaved PARP positive nuclei fraction” value was found to be 28.9%.
The result for `CN1CCN(c2ccc3nc(-c4c(N)c5c(F)cccc5[nH]c4=O)[nH]c3c2)CC1` [Dovitinib] + Cc1cc(N2CCOCC2)cc2[nH]c(-c3c(NC[C@@H](O)c4cccc(Cl)c4)cc[nH]c3=O)nc12 [BMS536924] (first compound 0.1 µM, partner dose 0.2 µM) reads 211%.
The result for `C[C@@H](Oc1cc(-c2cnn(C3CCNCC3)c2)cnc1N)c1c(Cl)ccc(F)c1Cl` [Crizotinib] + COc1ccc(-c2ccc3c(N4CCOCC4)nc(N4C[C@@H](C)O[C@@H](C)C4)nc3n2)cc1CO [KU0063794] (first compound 0.2 µM, partner dose 0.02 µM) reads 98.9%.
